The results in this text go back to paper PMC6711988.

Sequences of proteins named here, by UniProt entry; tags and fusion partners are left off.
UniProt Q7XZF5: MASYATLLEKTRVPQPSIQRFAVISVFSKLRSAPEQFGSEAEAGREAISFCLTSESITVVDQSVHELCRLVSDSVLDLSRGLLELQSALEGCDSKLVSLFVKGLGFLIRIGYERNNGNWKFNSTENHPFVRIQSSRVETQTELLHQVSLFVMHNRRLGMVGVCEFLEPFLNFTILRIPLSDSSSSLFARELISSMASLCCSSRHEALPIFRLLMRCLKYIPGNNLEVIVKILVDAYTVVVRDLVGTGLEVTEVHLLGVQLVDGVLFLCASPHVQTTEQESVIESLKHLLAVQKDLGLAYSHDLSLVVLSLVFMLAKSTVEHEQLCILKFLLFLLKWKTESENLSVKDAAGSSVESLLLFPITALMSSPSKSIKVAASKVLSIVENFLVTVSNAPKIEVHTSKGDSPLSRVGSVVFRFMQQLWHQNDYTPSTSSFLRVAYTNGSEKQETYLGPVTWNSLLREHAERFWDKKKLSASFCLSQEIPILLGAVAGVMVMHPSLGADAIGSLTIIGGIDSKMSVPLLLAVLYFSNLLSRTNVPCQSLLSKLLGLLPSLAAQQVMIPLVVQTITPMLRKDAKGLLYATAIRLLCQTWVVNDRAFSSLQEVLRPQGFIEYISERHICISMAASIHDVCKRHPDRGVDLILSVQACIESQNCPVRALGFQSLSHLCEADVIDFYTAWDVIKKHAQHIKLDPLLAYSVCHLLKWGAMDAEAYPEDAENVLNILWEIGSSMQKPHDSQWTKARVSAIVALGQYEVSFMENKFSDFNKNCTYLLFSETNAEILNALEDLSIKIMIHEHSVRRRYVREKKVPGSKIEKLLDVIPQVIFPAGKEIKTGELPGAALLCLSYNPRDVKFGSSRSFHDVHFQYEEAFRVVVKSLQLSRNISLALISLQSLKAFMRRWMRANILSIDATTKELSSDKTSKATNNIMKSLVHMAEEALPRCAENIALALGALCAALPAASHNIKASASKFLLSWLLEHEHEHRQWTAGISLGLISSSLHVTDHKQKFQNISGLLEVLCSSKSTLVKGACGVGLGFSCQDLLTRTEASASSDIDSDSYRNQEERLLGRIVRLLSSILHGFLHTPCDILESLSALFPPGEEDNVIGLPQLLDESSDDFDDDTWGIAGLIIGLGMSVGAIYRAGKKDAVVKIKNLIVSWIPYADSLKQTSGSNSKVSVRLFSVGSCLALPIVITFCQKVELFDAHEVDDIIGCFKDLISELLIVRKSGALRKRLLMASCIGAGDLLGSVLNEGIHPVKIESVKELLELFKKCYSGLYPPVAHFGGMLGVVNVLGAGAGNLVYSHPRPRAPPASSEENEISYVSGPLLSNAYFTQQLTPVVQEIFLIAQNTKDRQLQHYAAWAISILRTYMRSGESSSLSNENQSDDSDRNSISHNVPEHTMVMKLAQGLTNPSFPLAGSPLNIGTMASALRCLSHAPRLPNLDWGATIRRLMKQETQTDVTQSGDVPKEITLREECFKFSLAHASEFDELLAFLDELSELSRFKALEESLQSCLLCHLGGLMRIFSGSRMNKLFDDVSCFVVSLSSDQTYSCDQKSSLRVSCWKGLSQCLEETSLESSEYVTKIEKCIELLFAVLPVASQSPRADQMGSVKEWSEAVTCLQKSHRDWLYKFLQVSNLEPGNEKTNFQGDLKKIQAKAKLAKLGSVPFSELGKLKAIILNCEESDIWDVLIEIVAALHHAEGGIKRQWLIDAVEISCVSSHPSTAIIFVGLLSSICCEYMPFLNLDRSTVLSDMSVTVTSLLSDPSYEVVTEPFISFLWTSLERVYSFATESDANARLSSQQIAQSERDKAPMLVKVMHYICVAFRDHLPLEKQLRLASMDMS

T1: RRP41-GFP (Arabidopsis thaliana) (UniProt Q9SP08)
T1 sequence: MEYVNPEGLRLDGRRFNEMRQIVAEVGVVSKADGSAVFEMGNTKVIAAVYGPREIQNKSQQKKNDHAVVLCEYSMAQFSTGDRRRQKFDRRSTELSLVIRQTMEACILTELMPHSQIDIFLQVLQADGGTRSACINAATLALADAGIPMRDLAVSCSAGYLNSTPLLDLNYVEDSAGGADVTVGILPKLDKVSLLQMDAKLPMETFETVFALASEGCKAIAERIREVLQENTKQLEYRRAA

T2: RRP45A-GFP (Arabidopsis thaliana) (UniProt Q9LDM2)
T2 sequence: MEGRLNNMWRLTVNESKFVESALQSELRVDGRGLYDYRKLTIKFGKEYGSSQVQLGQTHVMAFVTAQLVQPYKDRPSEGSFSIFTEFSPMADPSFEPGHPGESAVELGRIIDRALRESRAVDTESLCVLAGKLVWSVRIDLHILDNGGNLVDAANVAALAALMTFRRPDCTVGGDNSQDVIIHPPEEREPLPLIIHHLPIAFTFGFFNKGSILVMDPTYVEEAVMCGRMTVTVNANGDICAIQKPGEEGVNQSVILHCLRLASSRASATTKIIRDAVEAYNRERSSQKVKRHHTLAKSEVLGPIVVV

B1: RRP41 (protein, UniProt Q9SP08 1-241)
chain: T1 sequence
B2: RRP46 (protein, UniProt Q9LX74 1-239)
chain: MEIDREDGRTPNQLRPLACSRNILHRPHGSASWSQGDTKVLAAVYGPKAGTKKNENAEKACFEVIWKPKSGQIGKVEKEYEMILKRTIQSICVLTVNPNTTTSVIIQVVHDDGSLLPCAINAACAALVDAGIPMKHLAVAICCCLAENGYLVLDPNKLEEKKMTAFAYLVFPNTTLSVLPEGSSVAEGEPVEHGIITSITHGVMSVDDYFLCVENGRAATASLSAFFRKNFQQSSSKAG
B3: MTR4 (protein, UniProt Q9XIF2 1-988)
chain: MGSVKRKSVEESSDSAPPQKVQREDDSTQIINEELVGCVHDVSFPENYVPLAPSVHNKPPAKDFPFTLDSFQSEAIKCLDNGESVMVSAHTSAGKTVVASYAIAMSLKENQRVIYTSPIKALSNQKYRDFKEEFSDVGLMTGDVTIDPNASCLVMTTEILRSMQYKGSEIMREVAWIIFDEVHYMRDSERGVVWEESIVMAPKNSRFVFLSATVPNAKEFADWVAKVHQQPCHIVYTDYRPTPLQHYVFPAGGNGLYLVVDEKSKFHEDSFQKSLNALVPTNESDKKRDNGKFQKGLVIGKLGEESDIFKLVKMIIQRQYDPVILFSFSKKECEALAMQMSKMVLNSDDEKDAVETIFASAIDMLSDDDKKLPQVSNILPILKRGIGVHHSGLLPILKEVIEILFQEGLIKCLFATETFSIGLNMPAKTVVFTNVRKFDGDKFRWLSSGEYIQMSGRAGRRGIDKRGICILMVDEKMEPAVAKSMLKGSADSLNSAFHLSYNMLLNQLRCEEGDPENLLRNSFFQFQADRAIPDLEKQIKSLEEERDSLVIEEEESLKNYYNLILQYKSLKKDIREIVFTPKYCLPFLLPNRAVCLDCTNDDEEPQSFSIEDQDTWGVIMKFNKVKSLSEDDDSRRPEDANYTVDVLTRCMVSKDGVGKKKVKAVPIKERGEPVVVTVPLSQIKSLSSAIMNIPKDLVPLEARENALKKVSELLSRHPDGIPLDPEVDMKIKSSSYKKTVRRLEALENLFEKHKIAKSPLITEKLKVLQMKEELIAKIKSLKKTVRSSTALAFKDELKARKRVLRRLGYITSDNVVELKGKVACEISSAEELTLTELMFSGIFKDAKVEELVSLLSCFVWRERLPDAAKPREELDLLFIQLQDTARRVAEVQLDCKVEIDVESFVQSFRPDIMEAVYAWAKGSKFYEVMEIARVFEGSLIRAIRRMEEVLQQLIVAAKSIGETQLEAKLEEAVSKIKRDIVFAASLYL
B4: RRP45A (protein, UniProt Q9LDM2 1-307)
chain: T2 sequence
B5: HEN2 (protein, UniProt Q9ZVW2 1-995)
chain: MSAQMEEPETLGKRKESESSKLRSDETPTPEPRTKRRSLKRACVHEVAVPNDYTPTKEETIHGTLDNPVFNGDMAKTYPFKLDPFQSVSVACLERKESILVSAHTSAGKTAVAEYAIAMAFRDKQRVIYTSPLKALSNQKYRELQHEFKDVGLMTGDVTLSPNASCLVMTTEILRAMLYRGSEVLKEVAWVIFDEIHYMKDRERGVVWEESIIFLPPAIKMVFLSATMSNATEFAEWICYLHKQPCHVVYTDFRPTPLQHYAFPMGGGGLYLVVDDNEQFREDSFVKMQDTFPKPKSNDGKKSANGKSGGRGAKGGGGPGDSDVYKIVKMIMERKFEPVIIFSFSRRECEQHALSMSKLDFNTDEEKEVVEQVFNNAMQCLNEEDRSLPAIELMLPLLQRGIAVHHSGLLPVIKELVELLFQEGLVKALFATETFAMGLNMPAKTVVFTAVKKWDGDSHRYIGSGEYIQMSGRAGRRGKDERGICIIMIDEQMEMNTLRDMMLGKPAPLLSTFRLSYYTILNLLSRAEGQFTAEHVIRHSFHQFQHEKALPDIGNKVSKLEEEAAILNASGEAEVAEYHNLQFDIAKHEKKLMSEIIRPERVLCFLDTGRLVKIREGGTDWGWGVVVNVVKNSSVGTGSASSHGGGYIVDTLLHCSTGFSENGAKPKPCPPRAGEKGEMHVVPVQLPLISALSRLRISVPSDLRPVEARQSILLALQELSSRFPLGFPKLHPVKDMNIQDTEIVDLVSQIEEVEQKLLAHPMHKSEDDQQIKSFQRKAEVNYEIQQLKSKMRDSQLQKFRDELKNRSRVLKKLGHIDADGVVQVKGRAACLIDTGDELLVTELMFNGTFNDLDHHQVAALASCFIPVDKSNEQVNLRNELTKPLQQLQDSARKIAEIQHECKLEIDVEEYVESTIRPFLMDVIYSWSKGASFAEIIQMTDIFEGSIIRSARRLDEFLNQLRAAAEAVGESSLESKFAAASESLRRGIMFANSLYL
B6: RRP45B/CER7 (protein, UniProt Q9M209 1-438)
chain: MEGRLANMWRLTVNESKFVETALQSELRVDGRGLYDYRKLTIKFGKEYGSSEVQLGQTHVMGFVTAQLVQPYKDRPNEGSLSIFTEFSPMADPSFEPGRPGESAVELGRIIDRGLRESRAVDTESLCVLAGKMVWSVRIDLHILDNGGNLVDAANIAALAALMTFRRPDCTVGGENGQEVIIHPLEEREPLPLIIHHLPIAFTFGFFNKGNIVVMDPTYVEEAVMCGRMTVTVNANGDICAIQKPGEEGVNQSVILHCLRLASSRAAATTKIIREEVEAYNCERSLQKVKRHPTLAKSEVSGPTVAVKEEHRKSSDQERAAEISREHVERLKLSTEEVRSSKEEEAANFKGGPSNWDPYSEAMDVDSLKVSLASRGDPVTKSSSTKKMNGSGNAQKVGVEISVEEVTGELGKKDTKHKDGEMTLKDAVKPKKKRKNKS
B7: RRP4 (protein, UniProt Q9ZVT7 1-322)
chain: MVMRKLQLPLSQTQKVRFERAIERLQSLSSSANSDASVIVTDSIPVNHDDAFLKGHGTSEVDGELLATVCGVVERVDKLVYVRTLRARYKPEVGDIVVGRVIEVAQKRWRVELNFNQDGVLMLSSMNMPDGIQRRRTSVDELNMRNIFVEHDVVCAEVRNFQHDGSLQLQARSQKYGKLEKGQLLKVDPYLVKRSKHHFHYVESLGIDLIIGCNGFIWVGEHVEVRDPMAIDDQKDEEMISSSSTGKEQSHIPLETRQTICRIGNAIRVLSNLGFTVTLEVIMETVNLSNSKNIDIHDMLGSEFHVVVAENEAERRRTKRKK
B8: RRP44 (enzyme, UniProt Q9SHL7 1-933)
chain: MLQSKVFNKKTRGGRIQKQVREVYLRDDIYCGAFSCKSCDSSAARLSSSKIIVVDTNVVLHQIDLLENKAIDTVVVLSVVLDEVKNRNRSVYNRIRLLCSNPARQFYVFSNHVHKDTYVQAMEKESANDHNDRAIRVATLWYQKHLGDTSQVLLVTNDRENKRKATEEGISAETIEAYVKSLGQPELLDLLAQPTNEDITMEDADDSRPSKRKLIYQEHKPMSEITAGLHRGIYHQGKLRVNRFNPYEAYVGSESIGEEIIIYGRSNMNRAFDGDIVAVELLPRDQWQDEKALSIAEEDDEEDDTVHLAPDNVDDAPRTSNLSHETSGDKNAAPVRPSGRVVGVIRRNWHSYCGSLEPMSLPAGSGGTAHALFVSKDRRIPKIRINTRQLQNLLDMRIVVAVDSWDRQSRYPSGHYVRPIGKIGDKETETEVVLIENDVDYSPFSSQVLACLPPLPWSVSSEDVSNPVRQDLRHLLVFSVDPPGCKDIDDALHCTSLPNGNFELGVHIADVTNFVHPGTPLDDEASKRGTSVYLVERRIDMLPKPLTEDICSLRADVERLAFSVIWEMSPDAEIISTRFTKSIIKSSAALSYIEAQARMDDSRLTDSLTTDLRNMNTLAKIMRQRRIDRGALTLASAEVKFDIDPENHDPLNIGMYQILEANQMVEEFMLAANVSVAGQILKLFPSCSLLRRHPTPTREMLEPLLRTAAAIGLTLDVSSSKALADSLDRAVGEDPYFNKLIRILATRCMTQAVYFCSGDLSPPEYHHYGLAAPLYTHFTSPIRRYADVFVHRLLAASLGIYKLPTVFQDRPQLTSVADNLNYRHRNAQMAGRASVELYVLIYFRTRPTDEEARVVKIRSNGFIVFVPKYGIEGPVYLTGKGEKGAGDWYVDEEKQKIVKMDGSLSYSVLQTVKIHMEVVEPQPNRPKLQLTLL

Results are given in words; binding and its absence hold for the method and conditions named. In cells and extracts the contact can be indirect. A yes stands for co-enrichment or nearness to the bait. Other partners may have been found. For some of these results: A no says only that the protein was not detected with the bait. For some of these results: Tags and fused reporters may be left off the sequences shown.

The first test concerns the target RESURRECTION1 (RST1) fused to GFP (Arabidopsis thaliana) (UniProt Q7XZF5). Description: affinity purification with mass spectrometry; GFP-tagged bait captured from cleared lysate of Arabidopsis flower buds (50 mM Tris HCl pH 7.5, 25 or 50 mM NaCl, 1% Triton) on magnetic microbeads coupled to GFP antibodies, five washes; eluate analysed by nanoLC-MS/MS; enrichment against 20 control IPs (adjP < 0.05).
For B1, the binding result is listed as “binds”.
Same read-out and setting: the same measure for B2: “binds”; for B3: “no binding”; for B4: “no binding”.
Still for that read-out and setting: the same measure for B5: “no binding”.
B6: the binding entry is listed as “binds”.
Same read-out and setting: the same measure for B7: “binds”.

The target of another test is T1, RRP41-GFP (Arabidopsis thaliana). The description is as above.
Consider B3, for which the binding result is listed as “binds”.
Still for that read-out and setting: to B4 belongs “binds”.
On to B5, for which the binding result is listed as “binds”.
On the same count and under the same terms, to B8 belongs “binds”.

The next test deals with T2, RRP45A-GFP (Arabidopsis thaliana). The test is described as above.
For the molecule B5, the binding entry is “binds”.
Still for that read-out and setting: the same measure for B8: “binds”.
